PubChem BioAssay AID504784 | Drosophila RNAi Screening Center – 2011
The deposit covers about 17,000 reagents; shown is an unselected part of those that have a named target and a result. 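Each column is one replicate's B-score; the combined score over replicates was not deposited, so single values may mislead.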 A plus sign joins genes that one reagent is predicted to hit.

Purpose: 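Fly genes whose silencing alters how much lipid cells keep in droplets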 (primary screen)
Cell system: Drosophila Kc167 embryonic cells
Reagent: long dsRNA against Drosophila genes, about 250 ng dsRNA per well
Duration: 4 days
Conditions: cells fed 400 µM oleic acid bound to BSA
Detection: 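Microscope images give a droplet-to-nucleus area ratio, taken as log and converted to a screen-wide B-score; higher values mean greater lipid storage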
Direction: droplet/nuclear area B-score: higher = more stored lipid (overstorage)

For Nepl5 [DRSC03241], what was measured?
droplet/nuclear area B-score, replicate 1: 0.246; droplet/nuclear area B-score, replicate 2: -0.193

What did the screen give for Wdr92 [DRSC10187]?
droplet/nuclear area B-score, replicate 1: 0.466; droplet/nuclear area B-score, replicate 2: -0.24

With ATPsynepsilonL [DRSC14548], what was measured?
droplet/nuclear area B-score, replicate 1: -0.0401; droplet/nuclear area B-score, replicate 2: -0.321

For ple [DRSC11383], what was measured?
droplet/nuclear area B-score, replicate 1: -1.72; droplet/nuclear area B-score, replicate 2: -2.47

What is on record for CG3842 [DRSC18326]?
droplet/nuclear area B-score, replicate 1: -0.948; droplet/nuclear area B-score, replicate 2: -0.222

Which result is listed for CG17108 [DRSC02576]?
droplet/nuclear area B-score, replicate 1: 0.0832; droplet/nuclear area B-score, replicate 2: 2.28

Which result is listed for CG17108 [DRSC22214]?
droplet/nuclear area B-score, replicate 1: 0.384; droplet/nuclear area B-score, replicate 2: -1.28

With CG33268 [DRSC10143], how do the results read?
droplet/nuclear area B-score, replicate 1: -0.972; droplet/nuclear area B-score, replicate 2: -0.636

What is on record for Eb1 [DRSC05016]?
droplet/nuclear area B-score, replicate 1: -0.63; droplet/nuclear area B-score, replicate 2: 1.04

With CG33233 [DRSC08239], what was measured?
droplet/nuclear area B-score, replicate 1: 1.17; droplet/nuclear area B-score, replicate 2: 1.04

For d4 [DRSC04881], what does the deposit list?
droplet/nuclear area B-score, replicate 2: 2.29

For d4 [DRSC22674], how do the results read?
droplet/nuclear area B-score, replicate 1: -0.554; droplet/nuclear area B-score, replicate 2: -1.34

How did the screen score CG11570 [DRSC09844]?
droplet/nuclear area B-score, replicate 1: 0.153; droplet/nuclear area B-score, replicate 2: 0.0934

For Tmtc4 [DRSC15702], how do the results read?
droplet/nuclear area B-score, replicate 1: 0.876; droplet/nuclear area B-score, replicate 2: 0.205

For yellow-f [DRSC15348], what does the deposit list?
droplet/nuclear area B-score, replicate 1: -0.433; droplet/nuclear area B-score, replicate 2: 1.11

How did the screen score Scr [DRSC12604]?
droplet/nuclear area B-score, replicate 1: -3.49; droplet/nuclear area B-score, replicate 2: -4.44

How did the screen score Scr [DRSC23141]?
droplet/nuclear area B-score, replicate 1: 2.52; droplet/nuclear area B-score, replicate 2: 0.0199

With CG9008 [DRSC01889], what was measured?
droplet/nuclear area B-score, replicate 1: 0.584; droplet/nuclear area B-score, replicate 2: 0.921

Which result is listed for IFT52 [DRSC03271]?
droplet/nuclear area B-score, replicate 1: 0.517; droplet/nuclear area B-score, replicate 2: -1.39

Entries above whose target name starts with C or c:
CG3842 [DRSC18326] — droplet/nuclear area B-score, replicate 1 = -0.948; droplet/nuclear area B-score, replicate 2 = -0.222
CG17108 [DRSC02576] — droplet/nuclear area B-score, replicate 1 = 0.0832; droplet/nuclear area B-score, replicate 2 = 2.28
CG17108 [DRSC22214] — droplet/nuclear area B-score, replicate 1 = 0.384; droplet/nuclear area B-score, replicate 2 = -1.28
CG33268 [DRSC10143] — droplet/nuclear area B-score, replicate 1 = -0.972; droplet/nuclear area B-score, replicate 2 = -0.636
CG33233 [DRSC08239] — droplet/nuclear area B-score, replicate 1 = 1.17; droplet/nuclear area B-score, replicate 2 = 1.04
CG11570 [DRSC09844] — droplet/nuclear area B-score, replicate 1 = 0.153; droplet/nuclear area B-score, replicate 2 = 0.0934
CG9008 [DRSC01889] — droplet/nuclear area B-score, replicate 1 = 0.584; droplet/nuclear area B-score, replicate 2 = 0.921

The results go on.
With CG16825 [DRSC02526], how do the results read?
droplet/nuclear area B-score, replicate 1: -1.31; droplet/nuclear area B-score, replicate 2: -1.29

Which result is listed for Argl + CG9515 [DRSC03243]?
droplet/nuclear area B-score, replicate 1: 1.9; droplet/nuclear area B-score, replicate 2: 1.93

For Argl + CG9515 [DRSC03245], what was measured?
droplet/nuclear area B-score, replicate 1: 1.87; droplet/nuclear area B-score, replicate 2: 0.0546

How did the screen score TwdlQ [DRSC14745]?
droplet/nuclear area B-score, replicate 1: -2.11; droplet/nuclear area B-score, replicate 2: 0.229

How did the screen score TwdlQ [DRSC23107]?
droplet/nuclear area B-score, replicate 1: 0.339; droplet/nuclear area B-score, replicate 2: -0.229

How did the screen score Obp99a [DRSC15303]?
droplet/nuclear area B-score, replicate 1: 2.44; droplet/nuclear area B-score, replicate 2: 0.353

What is on record for ubl [DRSC04998]?
droplet/nuclear area B-score, replicate 1: -0.0442; droplet/nuclear area B-score, replicate 2: 0.575

For CG6295 [DRSC16012], what does the deposit list?
droplet/nuclear area B-score, replicate 1: 0.0181; droplet/nuclear area B-score, replicate 2: 0.00527

For Frq1 [DRSC19961], what does the deposit list?
droplet/nuclear area B-score, replicate 1: 0.0884; droplet/nuclear area B-score, replicate 2: -0.507

How did the screen score sbm [DRSC20185]?
droplet/nuclear area B-score, replicate 1: 0.194; droplet/nuclear area B-score, replicate 2: -0.0376

For CG11444 [DRSC17784], what was measured?
droplet/nuclear area B-score, replicate 1: 0.34

Which result is listed for CG13282 [DRSC02254]?
droplet/nuclear area B-score, replicate 1: 0.0416; droplet/nuclear area B-score, replicate 2: 1.18

How did the screen score CG8188 [DRSC20090]?
droplet/nuclear area B-score, replicate 1: 0.691; droplet/nuclear area B-score, replicate 2: -1.16; droplet/nuclear area B-score, replicate 3: 1.26

Which result is listed for CG5326 [DRSC13568]?
droplet/nuclear area B-score, replicate 1: 0.89; droplet/nuclear area B-score, replicate 2: -0.183

Which result is listed for CG5326 [DRSC15770]?
droplet/nuclear area B-score, replicate 1: -2.24; droplet/nuclear area B-score, replicate 2: 1.59

What is on record for Trf [DRSC03462]?
droplet/nuclear area B-score, replicate 1: 0.185; droplet/nuclear area B-score, replicate 2: -0.319

What did the screen give for CG1552 [DRSC19665]?
droplet/nuclear area B-score, replicate 1: -2.98; droplet/nuclear area B-score, replicate 2: -0.865

With Ptp4E [DRSC18701], how do the results read?
droplet/nuclear area B-score, replicate 1: 3.04; droplet/nuclear area B-score, replicate 2: -1.36; droplet/nuclear area B-score, replicate 3: -0.952

With Exn [DRSC09673], what does the deposit list?
droplet/nuclear area B-score, replicate 1: -0.135; droplet/nuclear area B-score, replicate 2: 0.924; droplet/nuclear area B-score, replicate 3: 0.791

For Exn [DRSC10077], how do the results read?
droplet/nuclear area B-score, replicate 1: -0.941; droplet/nuclear area B-score, replicate 2: 0.0507

Which result is listed for CG12963 [DRSC06265]?
droplet/nuclear area B-score, replicate 1: 0.274; droplet/nuclear area B-score, replicate 2: 1.25

With CG6276 [DRSC16007], how do the results read?
droplet/nuclear area B-score, replicate 1: 0.921; droplet/nuclear area B-score, replicate 2: -4.81

What is on record for eIF5 [DRSC20165]?
droplet/nuclear area B-score, replicate 1: 1.09; droplet/nuclear area B-score, replicate 2: 0.865; droplet/nuclear area B-score, replicate 3: 0.0716

For Alas [DRSC04044], what was measured?
droplet/nuclear area B-score, replicate 1: 0.0577; droplet/nuclear area B-score, replicate 2: 0.23

For Patronin [DRSC06756], what was measured?
droplet/nuclear area B-score, replicate 1: -0.344; droplet/nuclear area B-score, replicate 2: -0.0574

What is on record for Patronin [DRSC06757]?
droplet/nuclear area B-score, replicate 1: -1.22; droplet/nuclear area B-score, replicate 2: 2.87

Which result is listed for Patronin [DRSC06994]?
droplet/nuclear area B-score, replicate 1: -0.194; droplet/nuclear area B-score, replicate 2: -0.705

What is on record for Parp16 [DRSC06597]?
droplet/nuclear area B-score, replicate 1: 0.0585; droplet/nuclear area B-score, replicate 2: 0.459

How did the screen score CG42326 [DRSC06483]?
droplet/nuclear area B-score, replicate 1: -0.0337; droplet/nuclear area B-score, replicate 2: -0.581

For CG42326 [DRSC06484], what was measured?
droplet/nuclear area B-score, replicate 1: -0.296; droplet/nuclear area B-score, replicate 2: -0.00312

How did the screen score Rim [DRSC16224]?
droplet/nuclear area B-score, replicate 1: -0.49; droplet/nuclear area B-score, replicate 2: -0.144

What did the screen give for Rim [DRSC16225]?
droplet/nuclear area B-score, replicate 1: -0.623; droplet/nuclear area B-score, replicate 2: -1.88

How did the screen score Rim [DRSC16226]?
droplet/nuclear area B-score, replicate 1: -0.494; droplet/nuclear area B-score, replicate 2: -0.207

For Rim [DRSC16227], what was measured?
droplet/nuclear area B-score, replicate 1: -0.0992; droplet/nuclear area B-score, replicate 2: 0.984

What is on record for Rim [DRSC22406]?
droplet/nuclear area B-score, replicate 1: 0.316; droplet/nuclear area B-score, replicate 2: 0.111
